For some assays here: Not every detail of the peptide structures is certain; ends, links or a residue may be inferred. Some entries repeat one wording, which the source may state once for all of them. For some assays here: At least one compound was matched to its structure with a doubt left. Starred links: 1 amine or outer side, 2 acyl side, 3 side chain; linkers in the order of their positions; H or OH if unused. Positions of bridges follow the written chain, without caps; N, C: chain ends. Residues, ends and D or L forms follow the SMILES beside them. X1 = C(C[*:1])C[*:2]
Tests used:
[1] = system: endogenous PRC2 extracted from a human clear cell renal carcinoma cell line (Caki-1); experiment: IC50 (µM)
[2] = Circular dichroism (helicity); type: physicochemical; details: CD in water
Experimental: Circular dichroism spectra were recorded on a CHIRASCAN™ spectrometer. Peptides were dissolved in deionized water, at a concentration of 25 μM. CD signal was monitored at 1 nm intervals from 180 to 260 nm with a 1-mm path quartz cuvette. The data reported is the average of three scans, subtracting the background. The helical content of each peptide was determined using prism 7 software, with molar ellipticity [θ][deg·cm^2dmol^−1] being calculated using the following formula: [θ]=1000000×0/(C×#of residues×l), where θ is the ellipticity read out from Chirascan, C is the concentration of peptide samples in μM, l is the pathlength of the cuvette measured in mm. The percentage helicity was calculated with formula:% Hellicity=100×[θ]222/[θ]max222, where [θ]max222=−31500×[1−([…])].

Sequences of proteins named here, by UniProt entry; tags and fusion partners are left off.
UniProt Q15910, whole entry: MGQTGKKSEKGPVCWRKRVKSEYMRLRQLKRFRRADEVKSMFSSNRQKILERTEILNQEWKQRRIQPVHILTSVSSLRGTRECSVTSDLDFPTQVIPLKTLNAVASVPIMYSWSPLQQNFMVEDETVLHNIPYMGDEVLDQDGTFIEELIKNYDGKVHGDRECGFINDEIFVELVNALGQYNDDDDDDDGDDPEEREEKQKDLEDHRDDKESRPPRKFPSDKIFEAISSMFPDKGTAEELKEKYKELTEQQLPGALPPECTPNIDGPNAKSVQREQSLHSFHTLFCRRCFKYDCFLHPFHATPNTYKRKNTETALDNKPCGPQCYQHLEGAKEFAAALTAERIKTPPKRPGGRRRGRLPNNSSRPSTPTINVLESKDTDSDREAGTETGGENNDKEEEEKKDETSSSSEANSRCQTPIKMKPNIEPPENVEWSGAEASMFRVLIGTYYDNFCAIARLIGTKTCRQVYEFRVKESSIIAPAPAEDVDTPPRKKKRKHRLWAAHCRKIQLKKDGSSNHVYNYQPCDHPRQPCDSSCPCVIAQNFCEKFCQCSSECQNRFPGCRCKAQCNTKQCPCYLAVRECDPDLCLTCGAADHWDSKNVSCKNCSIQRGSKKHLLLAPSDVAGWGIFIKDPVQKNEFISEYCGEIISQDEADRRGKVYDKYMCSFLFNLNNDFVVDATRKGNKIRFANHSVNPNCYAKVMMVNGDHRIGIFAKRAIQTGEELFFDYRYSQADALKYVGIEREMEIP

[3] = system: PRC2-mediated H3K27me3 in Caki-1 cells; experiment: Inhibition of H3K27me3 in Caki-1 cells (western blot and absorbance-based colorimetric quantitation); type: cell-based, human; details: for H3K27 methylation response by western blot: Caki-1 cells, varying concentrations, 72h; for IC50: treatment once daily for 72h, normalized to total H3
[4] = system: H3K4me3, H3K9me3, H3K36me2, H3K79me2, H3K27Ac and H3K27me3 in Caki-1 cells; experiment: Selectivity over a panel of histone post-translational modifications (western blot of histones from treated Caki-1 cells); type: cell-based, human; details: 5 μM once daily for 72h
[5] = target: T1, endogenous PRC2 extracted from a human clear cell renal carcinoma cell line (Caki-1) (Homo sapiens, UniProt Q15910); experiment: Enzymatic functional assay to quantify inhibition of H3K27me3 (histone methyltransferase colorimetric assay); type: biochemical; details: for IC50: endogenous PRC2 from Caki-1 nuclear extracts, colorimetric, read-out: IC50 for inhibition of H3K27 trimethylation in vitro
T1 construct: Active PRC2 was isolated as a component of the nuclear extracts from Caki-1 cells; endogenous in cells; host or cells: Caki-1 nuclear extract (EpiQuik Nuclear Extraction kit, Epigentek OP-0002-1)

Caki-1 cells = type: cell-based, human; details: 72h of daily treatment
Experimental: All of the cells were grown adherently.
Antiproliferative assays. […] For the following 72h, every 24 h the cell culture media was changed and fresh media containing the compounds was added, 1% DMSO was used as control. After 72h of treatment, both floating and attached cells were collected and analyzed.

recombinant PRC2 complex = recombinant PRC2 complex (Homo sapiens, UniProt Q15910); experiment: Enzymatic H3K27me3 assay with pure recombinant PRC2 complex; type: biochemical; details: same enzymatic assay

Compound | IC50 [1] [nM] | improvement in helicity over the linear parent peptide [2] [%] | H3K27 methylation response by western blot [3] | IC50 [3] [nM] | effect on H3K4me3, H3K9me3, H3K36me2, H3K79me2 and H3K27Ac [4] | inhibition of H3K27me3 at high concentration [4] | potency relative to linear wild type counterpart 1 ([5]; H3K27me3 inhibition in vitro) | IC50 [5] [nM] | effect on cell proliferation (Caki-1 cells) | helicity ([2]; 20° C.) [%] | concentration dependence of inhibition of PRC2 catalytic function [5] | H3K27me3 inhibition in first screening ([5]; 10 μM peptide concentration) | H3K27me3 inhibition with recombinant PRC2 compared with endogenous PRC2 (recombinant PRC2 complex) | IC50 ([3]; listed as GN-Z24) [nM]
Ac-VINEEYKIWKKNTPFL-NH2 [compound 13] | > 60000 | – | – | – | – | – | – | – | – | – | – | – | – | –
CC[C@H](C)[C@@H]1NC(=O)[C@@H](NC(=O)[C@H](CC(=O)O)NC(=O)[C@@H](NC(=O)[C@@H](NC(C)=O)[C@@H](C)O)C(C)C)CSCCCSC[C@@H](C(=O)N[C@@H](CC(C)C)C(=O)N[C@@H](CO)C(=O)N[C@H](C(=O)N[C@@H](CC(C)C)C(=O)N[C@@H](C)C(=O)N[C@@H](CCC(=O)O)C(=O)N[C@@H](CCC(=O)O)C(=O)N[C@H](C(=O)N2CCC[C@H]2C(=O)N[C@@H](CCC(N)=O)C(=O)N[C@@H](CC(N)=O)C(N)=O)C(C)C)C(C)C)NC(=O)[C@H](CO)NC(=O)[C@H](C)NC1=O [2 (GN-ZB2), TVD[CIASC](CH2)3LSVLAEEVPQN] (Ac-TVDCIASCLSVLAEEVPQN-NH2; linker 4-8 via X1; C-terminus assumed) | – | 18 | clear concentration-dependent inhibition | 400 ± 200 | no effect | total inhibition | over 500 times | 170 ± 20 | significantly inhibits cell proliferation | – | – | – | – | –
CC[C@H](C)[C@H](NC(=O)[C@H](CC(C)C)NC(=O)[C@H](Cc1ccccc1)NC(=O)[C@H](CC(=O)O)NC(=O)[C@H](Cc1c[nH]cn1)NC(=O)[C@H](CCSC)NC(=O)[C@H](CO)NC(=O)[C@@H](NC(=O)[C@@H]1CSCCCSC[C@H](NC(=O)[C@H](CC(N)=O)NC(=O)[C@H](CCCNC(=N)N)NC(=O)[C@H](CS)NC(=O)[C@H](CC(C)C)NC(C)=O)C(=O)N[C@@H](CCSC)C(=O)N[C@@H](CC(C)C)C(=O)N[C@@H](Cc2c[nH]cn2)C(=O)N1)C(C)C)C(N)=O [11 (GN-ZW11), LCRN[CMLHC](CH2)3VSMHDFLI] (Ac-LCRNCMLHCVSMHDFLI-NH2; linker 5-9 via X1; C-terminus assumed) | – | – | clear dose-response inhibition | 1040 ± 1340 | no effect | total inhibition | – | 320 ± 100 | – | 95 | concentration dependent inhibition | the more potent of both series | almost the same result | –
CC[C@H](C)[C@H](NC(=O)[C@H](CCCCN)NC(=O)[C@@H]1CSCCCSC[C@H](NC(=O)[C@@H](NC(C)=O)C(C)C)C(=O)N[C@@H](CC(N)=O)C(=O)N[C@@H](CCC(=O)O)C(=O)N[C@@H](CCC(=O)O)C(=O)N1)C(=O)N[C@@H](Cc1c[nH]c2ccccc12)C(=O)N[C@@H](CCCCN)C(=O)N[C@@H](CCCCN)C(=O)N[C@@H](CC(N)=O)C(=O)N[C@H](C(=O)N1CCC[C@H]1C(=O)N[C@@H](Cc1ccccc1)C(=O)N[C@@H](CC(C)C)C(N)=O)[C@@H](C)O [24 (GN-Z24), V[CNEEC](CH2)3KIWKKNTPFL] (Ac-VCNEECKIWKKNTPFL-NH2; linker 2-6 via X1; C-terminus assumed) | – | 20 | clear dose-response inhibition | 1360 ± 1140 | no effect | total inhibition | – | 1330 ± 1360 | significantly inhibits cell proliferation | – | – | – | – | 2060 ± 1260

From US11345725B2, “Bis-thioether stapled peptides as inhibitors of PRC2 function” (Research Foundation of the City University of New York, priority 2019, dated 2022)
